In publication PMC7673560 one finds binding data, which are given here for 2 molecules.

The target in assay [1] is T1, TOPOISOMERASE Iα with 4HA tag (TOP1α-4HA) (Arabidopsis thaliana) (UniProt P30181).
T1 sequence: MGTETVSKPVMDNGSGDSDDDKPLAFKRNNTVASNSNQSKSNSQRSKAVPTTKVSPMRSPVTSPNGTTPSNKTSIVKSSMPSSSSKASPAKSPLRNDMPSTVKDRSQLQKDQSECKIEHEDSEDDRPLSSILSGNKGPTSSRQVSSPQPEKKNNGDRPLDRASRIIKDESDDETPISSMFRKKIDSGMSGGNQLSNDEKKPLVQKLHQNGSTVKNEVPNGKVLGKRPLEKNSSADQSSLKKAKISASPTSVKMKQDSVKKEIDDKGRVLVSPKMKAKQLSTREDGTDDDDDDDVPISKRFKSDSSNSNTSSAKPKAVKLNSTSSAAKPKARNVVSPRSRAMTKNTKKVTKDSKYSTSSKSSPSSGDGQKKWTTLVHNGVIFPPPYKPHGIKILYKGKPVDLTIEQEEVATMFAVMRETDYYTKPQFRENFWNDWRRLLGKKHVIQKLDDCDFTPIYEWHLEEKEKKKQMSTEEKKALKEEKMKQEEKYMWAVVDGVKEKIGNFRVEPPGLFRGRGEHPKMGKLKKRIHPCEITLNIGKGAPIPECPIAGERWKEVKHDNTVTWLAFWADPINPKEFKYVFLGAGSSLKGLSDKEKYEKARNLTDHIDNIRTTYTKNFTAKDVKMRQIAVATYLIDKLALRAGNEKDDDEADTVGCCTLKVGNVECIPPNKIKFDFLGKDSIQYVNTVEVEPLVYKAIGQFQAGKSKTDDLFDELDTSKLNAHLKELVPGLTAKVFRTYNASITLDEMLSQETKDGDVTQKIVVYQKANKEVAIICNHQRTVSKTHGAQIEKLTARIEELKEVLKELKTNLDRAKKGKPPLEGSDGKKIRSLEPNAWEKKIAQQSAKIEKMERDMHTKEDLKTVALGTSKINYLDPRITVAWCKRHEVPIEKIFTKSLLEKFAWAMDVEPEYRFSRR
Nature of the assay: co-IP; nuclear protein extracts of pistils (progeny of top1α-10 gTOP1α-4HA x upf1-1 gUPF1-3FLAG), anti-HA agarose beads, 4°C 2 h, 50 mM Tris-HCl pH 7.5, 150 mM NaCl, 0.5% Triton X-100; detected by anti-FLAG.

The target in assay [2] is T2, TOP1α fused to cYFP (Arabidopsis thaliana) (UniProt P30181).
T2 sequence: T1 sequence
Nature of the assay: split reporter; BiFC in Nicotiana benthamiana leaf epidermal cells, 2 d after infiltration, confocal microscope; signal only in the nucleus.

Results are given in words; binding and its absence hold for the method and conditions named. Binding seen in cells or lysates may run through a third protein. Some entries that bind do so weakly or less than the wild type. Where a sequence is shown, tags or fusion partners need not be part of it.

B1: UPF1-3FLAG (enzyme, UniProt Q9FJR0 1-1254)
chain: MDSQQSDLFDTASQPDTVADEYTFLEFNTQGDSEFDYQDFGSPTAWPTPSDSISIADVADRGEGGAAADHHSEASSPSSLSAGAGNGAKVGRGGVGGSGGVSSSSQVDALAAGVGNLNFEETGDDDGFDYGKNDFTEHACKYCGISNPACVVRCNVASCRKWFCNSRGNTSGSHIVNHLVRAKHKEVCLHRDSPLGETILECYNCGCRNVFLLGFISAKTDSVVVLLCRDPCLNVNALKDMNWDLSQWCPLIDDRCFLPWLVKVPSEQEQLRARQISAQQINKIEELWKTNPDATLEDLEKPGVDDEPQPVQPKYEDAYQYQNVFAPLIKLEADYDKMMKESQSKENLTVRWDIGLNKKRVAYFVFPKEENELRLVPGDELRLRYSGDAVHPSWQSVGHVIKLTAQEEVALELRANQGVPIDVNHGFSVDFVWKSTSFDRMQGAMKNFAVDETSVSGYIYHQLLGHEVEAQMVRNTLPRRFGVPGLPELNASQVNAVKSVLQKPISLIQGPPGTGKTVTSAAIVYHMAKQGQGQVLVCAPSNVAVDQLAEKISATGLKVVRLCAKSREAVSSPVEYLTLHYQVRHLDTSEKSELHKLQQLKDEQGELSSSDEKKYKNLKRATEREITQSADVICCTCVGAADLRLSNFRFRQVLIDESTQATEPECLIPLVLGVKQVVLVGDHCQLGPVIMCKKAARAGLAQSLFERLVTLGIKPIRLQVQYRMHPALSEFPSNSFYEGTLQNGVTIIERQTTGIDFPWPVPNRPMFFYVQLGQEEISASGTSYLNRTEAANVEKLVTAFLKSGVVPSQIGVITPYEGQRAYIVNYMARNGSLRQQLYKEIEVASVDSFQGREKDYIILSCVRSNEHQGIGFLNDPRRLNVALTRARYGIVILGNPKVLSKQPLWNGLLTHYKEHECLVEGPLNNLKQSMVQFQKPRKIYNDRRLFYGGGAGMIGNDNFGSGNPNADRRGSRGRAGGSYLPSGPPNGARPGLHPAGYPIPRVPLSPFPGGPPSQPYAIPTRGPVGAVPHAPQPGNHGFGAGRGTSVGGHLPHQQATQHNVGTIGPSLNFPLDSPNSQPSPGGPLSQPGYGSQAFRDGFSMGGISQDFLADDIKSQGSHDPYNMADFATQASPGGFAVDYATQGAHGAFPGNFMNQNSQGGYSRFSGINDFMSQEYMAHGGQGLFTQAGFIDSSQDDGQQNPYGVNNPNLQSQGLPNSLYSQPFAHYNTQPLNLSGPQQSQPNQSSQNPKHPYNG
With B1, the binding result in assay [1] is given as “binds”.

B2: UPF1 fused to nYFP (enzyme, UniProt Q9FJR0 1-1254)
chain: B1 chain
Take B2: the binding entry in assay [2] is listed as “binds”.
